# From the supplement of paper PMC10338343
# ± gives the standard deviation. The list shows a part of the results. Many entries were measured with a wide error.
# Tested on: EfPiwi piRISC loaded with L1MC piRNA (26 nt)
# Test: pre-steady-state target cleavage rate (min^-1); guide: L1MC piRNA 5'p-UAACUAAAUACUAUGCAAGCUGUAGG; MIWI and MILI are mouse PIWI proteins and EfPiwi is from a freshwater sponge; tags in brackets are library labels; higher = faster piRNA-guided slicing of the target
# Outline: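 With or without 500 nM GTSF1 partner protein, 1 nM active affinity-purified piRISC carrying one synthetic guide was mixed with 0.1 nM transcribed, DNA-blocked target RNA library in HEPES–potassium acetate buffer at 33 °C for 0–8 or 0–960 min. Uncleaved targets were sequenced and normalised to depth and to weakly complementary targets, three trials were pooled, and k3 was capped at 0.0001 min^-1. The pre-steady-state cleavage rate came from a burst-and-steady-state fit.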
# [1] = auxiliary factor: 500 nM Ephydatia muelleri Gtsf1
# [2] = auxiliary factor: none (no Gtsf1)
Sequence,pre-steady-state target cleavage rate [1],pre-steady-state target cleavage rate [2]
UCCUGGAUGUCGAACGUUAGUAUUUGAGUUA,0.000257 ± 0.031,0.000207 ± 0.029
UCCUGGAUGUGCUUGAAUAGUAUUUAGUUA,0.00214 ± 0.0034,0.000837 ± 0.013
UCCUGGAUGUGCUUGCAUAGUACUUUAGUUA,0.0126 ± 0.0061,0.001 ± 0.012
UCCUGGAUGUCCGUGCAUAGUAUUUAGUUA,0.00483 ± 0.0024,0.000667 ± 0.013
UCCUGGUACUAGCUUGCAUAGUAUUUAGUUA,0.00885 ± 0.0038,0.00189 ± 0.0075
UCCUGGAUGUCCUUGCGUAGUAUUUAGUUA,0.00159 ± 0.0035,0.000734 ± 0.01
UCCUGGAUGUGCUUGCAUAGUAUUCUAGUUA,0.00114 ± 0.0049,0.000537 ± 0.018
UCCUCCUACAGCAUGCAUAGUUUUUAGUUA,0.00379 ± 0.0028,0.000932 ± 0.0068
UCCUGGAUGAGCUAGCAUAGUAUUAAGUUA,0.00293 ± 0.0024,0.000739 ± 0.0094
UCCUGGAUGUGCAUGCAUAGUAUUUUGUUA,0.000688 ± 0.0088,0.000756 ± 0.011
UCCUGGAAGUCCUUGCAUAGUAUUUAGUUA,0.0092 ± 0.0031,0.000749 ± 0.0077
UCCUGGUUCAGCUUGCAUUGUAUUUAGUUA,0.0223 ± 0.007,0.00144 ± 0.008
UCCUGGAAGAGCUUGCAUAGUAUUUUGUUA,0.00497 ± 0.0026,0.00104 ± 0.011
UCCUGGAUGUCGAUGCAUAGAAUAUAGUUA,0.000114 ± 0.027,0.000308 ± 0.025
UCCUGGAUGUGCUUGCUUAGUAAUUAGUUA,0.00256 ± 0.0041,0.000358 ± 0.036
UCCUGGAUCAGCUUGCAUAGUGUUUAGUUA,0.0156 ± 0.0035,0.00696 ± 0.0045
UCCUGGAUGAGCAUGCAUAGUAAUUAGUUA,0.00173 ± 0.0034,0.0024 ± 0.006
UCCUCCUACAGCUUGCAUUGUUUUUAGUUA,0.00277 ± 0.0025,0.000588 ± 0.0075
UCCUGGAUGUCGAUGCAUAGUAUUUACGUUA,0.000487 ± 0.008,0.000146 ± 0.053
UCCUGGUACAGCUUGCAUAGUGUUUAGUUA,0.00794 ± 0.0028,0.00325 ± 0.0051
UCCUGGAUCUCGUUGCAUAGUAUUUAGUUA,0.0466 ± 0.011,0.00142 ± 0.0066

Sequence,pre-steady-state target cleavage rate [1],pre-steady-state target cleavage rate [2]
UCCUGGAACAGCUAGCAUAGUAUUUAGUUA,0.015 ± 0.0041,0.00128 ± 0.0056
UCCUGGAUGACCUUGCUUAGUAUUUAGUUA,0.000711 ± 0.005,0.000812 ± 0.012
UCCUCCUACAGCUUGCUUAGUAUUUACUUA,0.00381 ± 0.003,0.000547 ± 0.0099
UCCUGGAUGACUUGCAUAGUAUUUAGUUA,0.0058 ± 0.0023,0.00112 ± 0.0091
UCCUGCUUCAGCUUGCAUAGUAUUAAGUUA,0.00492 ± 0.0016,0.000492 ± 0.011
UCCUGGUACAGCUUGCAUAGUAUUUUCUAA,0.0055 ± 0.0029,0.00047 ± 0.034
UCCUGGUUCAGCUUGCAUAGUUUUUAGUUA,0.00498 ± 0.0023,0.000717 ± 0.018
UCCUGGAUGUCCUGGCAUAGUAUUUAGUUA,0.0055 ± 0.0047,0.000692 ± 0.011
UCCUCCUACAGCUUGCAUAGUAUUUACUUA,0.0042 ± 0.0034,0.000575 ± 0.0089
UCCUGGAUGAGCAUGGAUAGUAUUUAGUUA,0.00257 ± 0.0028,0.000282 ± 0.034
UCCUGGAAGAGCUUGCAUAGUUUUUAGUUA,0.00316 ± 0.003,0.000972 ± 0.013
UCCUGGAUCAGCUUGCAUAGUAUUAUAGUUA,0.0796 ± 0.024,0.00759 ± 0.0041
UCCUGGAUGUCGAUGCAUAGUAUCUAGUUA,0.00277 ± 0.0041,0.000505 ± 0.013
UCCUGGAACAGCUAGCAUUGUAUUUAGUUA,0.0018 ± 0.0038,0.00035 ± 0.016
UCCUGGAUCAGCAUGCAUAGUAUUAAGUUA,0.00392 ± 0.002,0.0034 ± 0.005
UCCUGGUACAGCAUGCAUAGUAUUUAGAUA,0.00412 ± 0.0025,0.000531 ± 0.015
UCCUGGAACAGGUUGCAUAGUAUUUAGUUA,0.0388 ± 0.0088,0.000651 ± 0.012
UCCUGCUACACCUUGCAUAGUAUUUAGUAA,0.00559 ± 0.0032,0.000507 ± 0.011
UCCUGGAACAGCUAGCAUAGUUUUUAGUUA,0.00164 ± 0.0032,0.000334 ± 0.022
UCCUGGAUGAGCAUGCAUAGUAUAUAGUUA,0.00333 ± 0.0032,0.000319 ± 0.03
UCCUGGAUGUCGAACGUAUCUGAUUUAGUUA,0.000401 ± 0.013,< 0.0001

Sequence,pre-steady-state target cleavage rate [1],pre-steady-state target cleavage rate [2]
UCCUGCUACAGGUUGCAAAGUAUUUAGUUA,0.0385 ± 0.0096,0.00132 ± 0.0071
UCCUGGAUGAGCAUGCAUAGUAUUUAGAUA,0.00142 ± 0.0044,0.000828 ± 0.0084
UCCUGGAUGAGCUUGCAUAGUAUUUUCUUA,0.00195 ± 0.0025,0.000488 ± 0.015
UCCUGGUACAGCUUGCAUAGUAUUUAGGUUA,0.00216 ± 0.0033,0.000181 ± 0.039
UCCUCCUACAGCUUGCAUAGUCAUUUAGUUA,0.00268 ± 0.0025,0.000788 ± 0.0082
UCCUGGAUGUCCUUGCAUAGUAUUUAGAUA,0.00461 ± 0.0029,0.000323 ± 0.012
UCCUGGAUGUCGAAGCAUAGUAUUCAGUUA,0.000266 ± 0.0094,0.000364 ± 0.016
UCCUGGUAGAGCUUGCAUAGUAUUUUGUUA,0.00292 ± 0.0029,0.000363 ± 0.033
UCCUGGAUCAGCUUGCAUAGUAUGUAGUUA,0.0171 ± 0.0042,0.0179 ± 0.0092
UCCUGGAUGAGCUUGGAUAGUAUUUAGUUA,0.0043 ± 0.0033,0.000886 ± 0.012
UCCUGCUACAGCUAGCAUAGUAUAUAGUUA,0.00485 ± 0.0017,0.000514 ± 0.011
UCCUGGAUGAGCUUGCUUAGUAUUUACUUA,0.00313 ± 0.0034,0.000578 ± 0.016
UCCUGCUACAGCUUGCAUUGUAUUUAGUAA,0.00316 ± 0.0014,0.000376 ± 0.014
UCCUGGUACAGCUAGCAUAGUAUUUAGUUA,0.0085 ± 0.0027,0.00072 ± 0.0081
UCCUGGAUGAGCUUAGCAUAGUAUUUAGUUA,0.0344 ± 0.0086,0.00174 ± 0.0061
UCCUGGUAGAGCUUGCAUAGUAUAUAGUUA,0.0131 ± 0.0051,0.00192 ± 0.0065
UCCUGGUACAGCUUGGAUAGUAUUUAGUUA,0.0049 ± 0.0027,0.000262 ± 0.054
UCCUGGAUCAGCCUUGCAUAGUAUUUAGUUA,0.0303 ± 0.0094,0.000578 ± 0.014
UCCUGGAUCAGCUUGCAUAGUAUUAUGUUA,0.005 ± 0.0024,0.00122 ± 0.0088
UCCUCCUUCAGCUUGCAUAGAAUUUAGUUA,0.00469 ± 0.0021,0.000985 ± 0.0058

# A few values from the entries so far.
# Under pre-steady-state target cleavage rate [2], UCCUGGUACAGCUAGCAUAGUAUUUAGUUA is entered as 0.00072 ± 0.0081
# Under pre-steady-state target cleavage rate [2], UCCUGGUAGAGCUUGCAUAGUAUAUAGUUA is entered as 0.00192 ± 0.0065
